Laboratory results from patent US8778947B2 (Intermune, Inc., priority 2012, dated 2014).

Details: human, in vivo

## Cc1ccc(=O)n(-c2ccccc2)c1 [Pirfenidone, 5-methyl-1-phenyl-2-(1H)-pyridone]
  AUC0-∞ higher with coadministration of ciprofloxacin on Day 6/7 compared with Day 1/2: approximately 78%
